Data on one substance can be found in paper PMC7949054.

Amino acid sequences for entries named in this document (tags omitted).
UniProt P30622: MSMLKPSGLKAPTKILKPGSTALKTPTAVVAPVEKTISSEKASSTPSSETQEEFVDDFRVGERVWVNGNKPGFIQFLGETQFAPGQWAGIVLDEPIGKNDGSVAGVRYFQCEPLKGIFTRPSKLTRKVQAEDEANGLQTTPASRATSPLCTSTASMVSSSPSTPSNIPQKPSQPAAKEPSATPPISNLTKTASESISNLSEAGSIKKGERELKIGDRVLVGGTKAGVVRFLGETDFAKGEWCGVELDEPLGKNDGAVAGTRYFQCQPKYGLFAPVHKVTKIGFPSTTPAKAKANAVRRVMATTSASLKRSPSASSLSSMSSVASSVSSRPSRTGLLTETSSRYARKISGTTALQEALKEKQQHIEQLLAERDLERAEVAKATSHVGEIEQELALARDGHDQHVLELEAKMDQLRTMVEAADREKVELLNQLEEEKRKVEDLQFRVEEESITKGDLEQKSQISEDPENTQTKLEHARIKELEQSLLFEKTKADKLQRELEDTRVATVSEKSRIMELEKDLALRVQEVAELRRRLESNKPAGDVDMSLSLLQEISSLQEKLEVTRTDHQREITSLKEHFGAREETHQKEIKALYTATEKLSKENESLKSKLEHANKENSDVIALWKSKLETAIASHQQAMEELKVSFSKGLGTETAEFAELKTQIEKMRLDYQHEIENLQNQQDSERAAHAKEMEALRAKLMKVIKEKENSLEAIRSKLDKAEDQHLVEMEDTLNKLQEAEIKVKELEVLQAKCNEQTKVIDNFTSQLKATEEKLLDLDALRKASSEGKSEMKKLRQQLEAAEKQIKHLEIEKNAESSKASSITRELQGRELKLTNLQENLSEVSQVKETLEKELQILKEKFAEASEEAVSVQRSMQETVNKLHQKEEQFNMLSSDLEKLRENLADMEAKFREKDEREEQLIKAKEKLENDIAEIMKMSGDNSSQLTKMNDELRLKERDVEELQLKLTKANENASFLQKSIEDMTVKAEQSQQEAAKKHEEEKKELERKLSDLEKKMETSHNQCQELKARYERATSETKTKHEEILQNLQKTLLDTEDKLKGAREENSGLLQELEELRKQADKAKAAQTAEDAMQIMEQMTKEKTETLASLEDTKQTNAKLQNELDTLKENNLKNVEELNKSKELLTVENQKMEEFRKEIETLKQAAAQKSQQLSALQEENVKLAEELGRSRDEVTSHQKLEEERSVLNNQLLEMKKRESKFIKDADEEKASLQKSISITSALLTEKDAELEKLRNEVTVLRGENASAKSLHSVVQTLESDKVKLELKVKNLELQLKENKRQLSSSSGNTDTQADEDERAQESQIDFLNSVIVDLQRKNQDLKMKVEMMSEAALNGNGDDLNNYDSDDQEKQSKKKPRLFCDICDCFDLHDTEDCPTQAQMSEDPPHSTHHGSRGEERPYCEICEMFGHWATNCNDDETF
UniProt Q15691: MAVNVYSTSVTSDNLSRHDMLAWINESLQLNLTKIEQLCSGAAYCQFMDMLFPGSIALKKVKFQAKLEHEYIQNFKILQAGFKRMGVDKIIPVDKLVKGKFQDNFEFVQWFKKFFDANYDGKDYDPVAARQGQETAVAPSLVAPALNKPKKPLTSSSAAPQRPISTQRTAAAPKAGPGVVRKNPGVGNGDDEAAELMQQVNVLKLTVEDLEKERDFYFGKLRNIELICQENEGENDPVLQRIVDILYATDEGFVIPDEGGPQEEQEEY

The target of assay [1] is T1, CLASP2, endogenous (human (endogenous in HPAEC)) (UniProt O75122).
T1 sequence: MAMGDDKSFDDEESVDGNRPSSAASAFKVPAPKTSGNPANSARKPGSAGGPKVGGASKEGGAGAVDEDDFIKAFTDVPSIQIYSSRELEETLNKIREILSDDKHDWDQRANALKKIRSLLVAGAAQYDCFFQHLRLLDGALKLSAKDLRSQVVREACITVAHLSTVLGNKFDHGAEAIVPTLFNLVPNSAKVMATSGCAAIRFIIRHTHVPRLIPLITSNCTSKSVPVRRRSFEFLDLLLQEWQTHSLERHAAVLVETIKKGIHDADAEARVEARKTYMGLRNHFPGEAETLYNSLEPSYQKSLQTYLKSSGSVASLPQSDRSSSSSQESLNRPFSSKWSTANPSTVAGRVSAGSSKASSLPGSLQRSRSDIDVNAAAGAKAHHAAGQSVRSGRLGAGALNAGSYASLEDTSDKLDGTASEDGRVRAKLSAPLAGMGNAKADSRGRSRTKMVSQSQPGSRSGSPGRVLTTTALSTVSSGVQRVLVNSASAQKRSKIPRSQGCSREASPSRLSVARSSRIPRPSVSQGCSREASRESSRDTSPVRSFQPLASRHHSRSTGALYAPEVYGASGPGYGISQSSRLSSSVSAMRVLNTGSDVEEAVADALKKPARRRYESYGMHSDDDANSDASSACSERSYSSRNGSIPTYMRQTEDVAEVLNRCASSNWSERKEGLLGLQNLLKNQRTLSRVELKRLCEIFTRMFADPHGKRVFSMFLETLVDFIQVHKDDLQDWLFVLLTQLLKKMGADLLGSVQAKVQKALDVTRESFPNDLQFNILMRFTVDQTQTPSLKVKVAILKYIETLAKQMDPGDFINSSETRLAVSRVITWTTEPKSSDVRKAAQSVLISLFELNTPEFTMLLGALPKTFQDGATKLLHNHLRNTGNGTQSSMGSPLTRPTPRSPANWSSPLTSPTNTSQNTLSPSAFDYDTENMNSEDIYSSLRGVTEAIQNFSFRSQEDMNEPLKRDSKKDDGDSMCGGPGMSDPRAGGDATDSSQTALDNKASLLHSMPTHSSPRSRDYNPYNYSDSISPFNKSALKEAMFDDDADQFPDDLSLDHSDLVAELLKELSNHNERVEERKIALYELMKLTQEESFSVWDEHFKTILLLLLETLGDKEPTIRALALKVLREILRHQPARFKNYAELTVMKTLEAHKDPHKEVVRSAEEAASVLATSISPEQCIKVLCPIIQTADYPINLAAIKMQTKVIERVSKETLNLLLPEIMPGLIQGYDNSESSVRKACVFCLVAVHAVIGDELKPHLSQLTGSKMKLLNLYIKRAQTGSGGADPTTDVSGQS
Put plainly: co-IP; lysates of HPAEC expressing Myc-SOCS3 (TBS-NP40: 20 mM Tris pH 7.4, 150 mM NaCl, 1% NP40); precipitated with antibodies to the endogenous partner (gp130, JAK2, α- or β-tubulin, CLIP-170, CLASP2) overnight at 4 °C, Protein G agarose; blot for Myc or EB1; in Fig. 7C also after IL-6 or HKSA (6 h).

Assay [2] deals with CLIP-170, endogenous (human (endogenous in HPAEC)) (UniProt P30622). The assay is described as above.

Results are given in words; binding and its absence hold for the method and conditions named. Binding seen in cells or lysates may run through a third protein. Some entries that bind do so weakly or less than the wild type.

In the case of “EB1 (End-Binding Protein 1), endogenous (from UniProt Q15691 1-268)”, the binding entry in assay [1] and in assay [2] was “binds” throughout.
